Data on 42 targets can be found in the supplement of paper PMC6411743.

Chains of the proteins cited; added tags and fusions are not shown. Lines headed by an entry give the natural chain unless they say otherwise; changes in a name come on top.
UniProt P10809, whole entry: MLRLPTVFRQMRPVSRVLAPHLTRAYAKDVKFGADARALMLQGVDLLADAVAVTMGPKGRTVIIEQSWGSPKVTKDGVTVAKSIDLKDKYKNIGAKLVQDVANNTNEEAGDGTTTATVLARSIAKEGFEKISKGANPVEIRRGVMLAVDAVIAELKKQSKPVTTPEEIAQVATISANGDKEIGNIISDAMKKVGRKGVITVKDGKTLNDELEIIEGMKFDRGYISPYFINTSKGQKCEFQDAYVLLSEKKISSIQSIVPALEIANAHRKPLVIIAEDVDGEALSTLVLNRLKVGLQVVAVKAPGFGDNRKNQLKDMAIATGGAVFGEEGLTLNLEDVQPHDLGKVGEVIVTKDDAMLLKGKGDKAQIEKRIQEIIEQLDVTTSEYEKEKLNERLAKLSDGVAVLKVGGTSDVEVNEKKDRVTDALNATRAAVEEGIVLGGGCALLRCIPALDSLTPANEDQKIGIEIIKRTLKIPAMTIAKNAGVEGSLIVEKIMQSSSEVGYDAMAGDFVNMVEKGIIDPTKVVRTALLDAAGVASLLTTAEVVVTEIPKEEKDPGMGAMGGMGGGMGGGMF
UniProt P13498: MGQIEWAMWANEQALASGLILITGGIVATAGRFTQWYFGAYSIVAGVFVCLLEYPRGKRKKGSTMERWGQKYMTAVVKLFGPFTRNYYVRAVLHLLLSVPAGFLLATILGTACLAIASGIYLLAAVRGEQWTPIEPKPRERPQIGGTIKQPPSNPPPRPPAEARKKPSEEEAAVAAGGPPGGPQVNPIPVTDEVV
UniProt O95997: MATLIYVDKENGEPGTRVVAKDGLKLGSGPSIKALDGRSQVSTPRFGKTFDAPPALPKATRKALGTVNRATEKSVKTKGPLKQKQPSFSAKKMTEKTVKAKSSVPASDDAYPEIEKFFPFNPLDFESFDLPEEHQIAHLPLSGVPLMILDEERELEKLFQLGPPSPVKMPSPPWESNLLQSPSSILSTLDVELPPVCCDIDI
UniProt P10515, whole entry: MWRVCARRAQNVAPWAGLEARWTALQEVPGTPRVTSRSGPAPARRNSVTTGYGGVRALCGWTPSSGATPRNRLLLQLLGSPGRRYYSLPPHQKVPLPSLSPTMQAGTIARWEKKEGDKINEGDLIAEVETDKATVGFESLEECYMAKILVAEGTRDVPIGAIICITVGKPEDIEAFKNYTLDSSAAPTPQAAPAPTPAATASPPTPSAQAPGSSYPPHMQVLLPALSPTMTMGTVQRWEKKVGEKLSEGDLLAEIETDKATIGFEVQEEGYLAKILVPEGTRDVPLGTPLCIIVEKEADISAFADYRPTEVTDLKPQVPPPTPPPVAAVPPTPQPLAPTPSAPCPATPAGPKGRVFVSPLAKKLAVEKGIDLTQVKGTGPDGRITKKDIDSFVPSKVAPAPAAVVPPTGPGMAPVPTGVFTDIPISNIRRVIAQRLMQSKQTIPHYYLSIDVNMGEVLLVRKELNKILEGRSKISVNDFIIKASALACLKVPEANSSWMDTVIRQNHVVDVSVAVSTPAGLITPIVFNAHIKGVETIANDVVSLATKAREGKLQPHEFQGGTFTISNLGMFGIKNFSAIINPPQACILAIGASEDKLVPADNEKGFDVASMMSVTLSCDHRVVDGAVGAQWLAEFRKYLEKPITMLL
UniProt P00505: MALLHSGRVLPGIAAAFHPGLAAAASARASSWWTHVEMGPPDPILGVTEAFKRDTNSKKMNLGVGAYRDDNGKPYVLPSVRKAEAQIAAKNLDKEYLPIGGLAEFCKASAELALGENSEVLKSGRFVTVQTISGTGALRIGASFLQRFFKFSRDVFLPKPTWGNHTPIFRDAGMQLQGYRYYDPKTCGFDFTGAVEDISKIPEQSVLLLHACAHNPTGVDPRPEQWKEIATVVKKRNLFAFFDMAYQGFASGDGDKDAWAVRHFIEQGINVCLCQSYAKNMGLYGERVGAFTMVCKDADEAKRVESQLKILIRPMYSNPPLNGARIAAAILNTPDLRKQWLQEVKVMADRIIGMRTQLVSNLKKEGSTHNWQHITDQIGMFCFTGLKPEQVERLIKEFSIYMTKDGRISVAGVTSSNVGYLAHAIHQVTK
UniProt P00387: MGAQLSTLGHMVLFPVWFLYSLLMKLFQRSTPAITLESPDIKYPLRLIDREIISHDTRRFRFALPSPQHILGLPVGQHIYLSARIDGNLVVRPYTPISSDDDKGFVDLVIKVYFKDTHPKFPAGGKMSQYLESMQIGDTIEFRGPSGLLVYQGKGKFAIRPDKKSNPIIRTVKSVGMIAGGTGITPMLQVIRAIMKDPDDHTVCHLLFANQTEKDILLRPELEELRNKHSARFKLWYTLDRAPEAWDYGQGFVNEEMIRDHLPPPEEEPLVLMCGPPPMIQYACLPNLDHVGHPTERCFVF
UniProt P09382, whole entry: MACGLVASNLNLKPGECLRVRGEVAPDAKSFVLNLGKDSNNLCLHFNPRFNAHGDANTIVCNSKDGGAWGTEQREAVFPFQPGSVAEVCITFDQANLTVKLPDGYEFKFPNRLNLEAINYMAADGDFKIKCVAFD
UniProt P16401, whole entry: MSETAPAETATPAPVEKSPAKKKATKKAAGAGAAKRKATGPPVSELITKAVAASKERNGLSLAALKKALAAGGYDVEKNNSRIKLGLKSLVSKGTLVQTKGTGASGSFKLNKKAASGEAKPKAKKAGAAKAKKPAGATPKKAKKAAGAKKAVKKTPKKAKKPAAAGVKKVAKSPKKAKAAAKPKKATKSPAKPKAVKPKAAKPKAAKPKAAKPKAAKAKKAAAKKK
UniProt P15812: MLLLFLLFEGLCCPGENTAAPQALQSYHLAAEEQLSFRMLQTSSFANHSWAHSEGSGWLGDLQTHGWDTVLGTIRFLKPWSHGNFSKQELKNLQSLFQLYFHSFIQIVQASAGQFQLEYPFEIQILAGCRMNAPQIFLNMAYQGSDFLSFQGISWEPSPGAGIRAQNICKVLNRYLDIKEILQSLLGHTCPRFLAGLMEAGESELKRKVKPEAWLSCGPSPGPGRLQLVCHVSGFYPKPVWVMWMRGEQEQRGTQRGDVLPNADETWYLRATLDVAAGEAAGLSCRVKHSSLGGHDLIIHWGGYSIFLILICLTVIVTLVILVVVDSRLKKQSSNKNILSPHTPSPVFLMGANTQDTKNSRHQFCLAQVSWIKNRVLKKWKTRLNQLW
UniProt P05387, whole entry: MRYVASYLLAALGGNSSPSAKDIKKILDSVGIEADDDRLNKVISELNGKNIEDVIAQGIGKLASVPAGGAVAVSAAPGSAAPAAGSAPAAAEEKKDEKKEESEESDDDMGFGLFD
UniProt P0C0S5, whole entry, looked up: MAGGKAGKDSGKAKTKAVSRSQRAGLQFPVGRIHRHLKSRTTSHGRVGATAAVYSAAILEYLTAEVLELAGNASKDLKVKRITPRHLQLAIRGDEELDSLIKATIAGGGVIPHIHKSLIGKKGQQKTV
UniProt Q71UI9, whole entry, looked up: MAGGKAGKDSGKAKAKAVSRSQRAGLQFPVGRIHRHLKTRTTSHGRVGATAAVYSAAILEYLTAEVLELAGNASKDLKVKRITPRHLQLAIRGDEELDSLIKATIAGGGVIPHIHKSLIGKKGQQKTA
UniProt P13598: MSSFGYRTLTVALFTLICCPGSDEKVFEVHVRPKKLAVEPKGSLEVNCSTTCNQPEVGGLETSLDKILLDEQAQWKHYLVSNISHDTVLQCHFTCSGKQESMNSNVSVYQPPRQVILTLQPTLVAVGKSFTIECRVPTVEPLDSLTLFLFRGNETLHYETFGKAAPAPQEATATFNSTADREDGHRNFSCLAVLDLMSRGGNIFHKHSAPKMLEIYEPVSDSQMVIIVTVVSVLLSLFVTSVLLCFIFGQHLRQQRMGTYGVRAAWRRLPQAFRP
UniProt P10244: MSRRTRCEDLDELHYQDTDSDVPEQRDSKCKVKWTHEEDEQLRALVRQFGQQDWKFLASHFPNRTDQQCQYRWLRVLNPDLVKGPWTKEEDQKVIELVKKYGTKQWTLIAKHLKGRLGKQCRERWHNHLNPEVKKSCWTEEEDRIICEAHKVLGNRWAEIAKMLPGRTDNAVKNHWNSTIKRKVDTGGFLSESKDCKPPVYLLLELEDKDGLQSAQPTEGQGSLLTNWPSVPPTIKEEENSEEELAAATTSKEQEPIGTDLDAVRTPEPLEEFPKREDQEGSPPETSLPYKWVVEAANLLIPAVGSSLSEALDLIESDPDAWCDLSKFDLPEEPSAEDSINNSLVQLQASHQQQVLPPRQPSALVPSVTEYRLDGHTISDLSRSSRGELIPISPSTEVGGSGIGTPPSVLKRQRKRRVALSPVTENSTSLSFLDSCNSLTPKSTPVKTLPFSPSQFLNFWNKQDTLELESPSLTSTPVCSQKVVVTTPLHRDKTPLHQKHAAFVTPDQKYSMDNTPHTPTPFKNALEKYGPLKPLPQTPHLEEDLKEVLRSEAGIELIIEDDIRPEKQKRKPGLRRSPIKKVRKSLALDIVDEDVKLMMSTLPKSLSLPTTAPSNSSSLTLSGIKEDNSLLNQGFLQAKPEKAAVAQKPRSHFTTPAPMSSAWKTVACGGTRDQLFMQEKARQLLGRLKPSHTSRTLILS
UniProt P11182, whole entry: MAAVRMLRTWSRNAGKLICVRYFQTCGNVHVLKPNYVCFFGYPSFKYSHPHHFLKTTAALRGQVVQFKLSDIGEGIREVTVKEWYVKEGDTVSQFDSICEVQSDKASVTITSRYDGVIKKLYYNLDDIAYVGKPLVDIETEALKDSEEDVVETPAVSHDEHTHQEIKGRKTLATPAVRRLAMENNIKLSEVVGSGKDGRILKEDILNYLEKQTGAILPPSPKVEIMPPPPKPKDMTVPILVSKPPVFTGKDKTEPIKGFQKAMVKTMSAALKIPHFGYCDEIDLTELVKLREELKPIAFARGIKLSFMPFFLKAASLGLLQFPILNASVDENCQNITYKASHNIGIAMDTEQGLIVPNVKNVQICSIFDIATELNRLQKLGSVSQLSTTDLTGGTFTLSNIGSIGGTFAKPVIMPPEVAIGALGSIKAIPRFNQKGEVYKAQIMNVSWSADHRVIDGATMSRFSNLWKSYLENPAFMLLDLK
UniProt P12955: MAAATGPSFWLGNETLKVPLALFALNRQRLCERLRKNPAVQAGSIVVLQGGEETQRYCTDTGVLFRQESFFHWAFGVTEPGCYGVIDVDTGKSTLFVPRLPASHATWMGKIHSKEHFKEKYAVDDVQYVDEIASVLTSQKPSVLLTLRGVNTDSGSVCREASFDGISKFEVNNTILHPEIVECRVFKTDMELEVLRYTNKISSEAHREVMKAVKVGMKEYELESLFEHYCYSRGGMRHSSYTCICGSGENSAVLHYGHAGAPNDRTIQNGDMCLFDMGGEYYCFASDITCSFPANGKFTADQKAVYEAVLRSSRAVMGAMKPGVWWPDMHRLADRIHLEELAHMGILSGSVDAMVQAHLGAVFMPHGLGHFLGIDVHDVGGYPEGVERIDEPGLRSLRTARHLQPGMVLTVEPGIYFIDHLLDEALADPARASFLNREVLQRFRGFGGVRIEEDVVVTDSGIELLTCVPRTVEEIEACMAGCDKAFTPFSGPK
UniProt P07919: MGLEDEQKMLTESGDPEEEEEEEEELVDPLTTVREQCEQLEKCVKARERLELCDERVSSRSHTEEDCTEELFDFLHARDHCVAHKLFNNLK
UniProt P12277: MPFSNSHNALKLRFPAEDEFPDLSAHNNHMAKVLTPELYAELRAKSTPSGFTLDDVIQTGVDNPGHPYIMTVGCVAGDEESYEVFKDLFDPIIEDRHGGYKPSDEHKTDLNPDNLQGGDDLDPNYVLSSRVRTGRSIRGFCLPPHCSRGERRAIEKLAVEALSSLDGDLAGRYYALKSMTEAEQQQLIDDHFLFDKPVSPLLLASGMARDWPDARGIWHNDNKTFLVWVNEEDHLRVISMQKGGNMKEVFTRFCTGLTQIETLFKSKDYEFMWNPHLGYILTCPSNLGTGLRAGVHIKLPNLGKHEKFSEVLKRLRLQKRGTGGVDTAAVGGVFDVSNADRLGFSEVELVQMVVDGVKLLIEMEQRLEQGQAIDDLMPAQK
UniProt P06753, whole entry: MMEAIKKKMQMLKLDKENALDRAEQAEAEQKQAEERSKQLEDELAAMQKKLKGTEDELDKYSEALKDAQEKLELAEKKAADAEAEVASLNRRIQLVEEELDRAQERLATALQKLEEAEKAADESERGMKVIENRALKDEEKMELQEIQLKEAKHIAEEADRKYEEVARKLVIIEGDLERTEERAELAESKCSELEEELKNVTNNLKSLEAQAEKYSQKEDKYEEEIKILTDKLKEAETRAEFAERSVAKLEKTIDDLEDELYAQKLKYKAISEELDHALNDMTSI
UniProt P01137, whole entry: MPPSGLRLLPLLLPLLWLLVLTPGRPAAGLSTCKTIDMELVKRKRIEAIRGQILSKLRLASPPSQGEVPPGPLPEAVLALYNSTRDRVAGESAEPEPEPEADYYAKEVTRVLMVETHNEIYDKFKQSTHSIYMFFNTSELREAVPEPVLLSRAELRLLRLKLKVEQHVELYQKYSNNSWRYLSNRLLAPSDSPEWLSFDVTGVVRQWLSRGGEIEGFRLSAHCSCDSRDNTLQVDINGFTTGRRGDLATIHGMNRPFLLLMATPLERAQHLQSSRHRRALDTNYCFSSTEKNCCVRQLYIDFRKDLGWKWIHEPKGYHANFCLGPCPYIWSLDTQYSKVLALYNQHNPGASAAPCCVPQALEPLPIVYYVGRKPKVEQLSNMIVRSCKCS

± gives the standard deviation of the averaged measurements. This is a selection; strong and weak results do not stand in their true shares. Most values lie at the level of the controls, where differences are scatter.

Compound in the experiment: Nc1ncnc2c1ncn2[C@@H]1O[C@H](COP(=O)(O)OP(=O)(O)OP(=O)(O)O)[C@@H](O)[C@H]1O [adenosine triphosphate]
Put plainly: NP40-soluble protein abundance relative to vehicle (solubility fold change) (ratio); higher = more soluble protein in presence of ATP. Summed up: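 Crude Jurkat lysate, prepared by Dounce homogenisation, was exposed to eight concentrations from 0.1 to 10 mM for 10 min at room temperature and then 3 min at 37 °C. Solubilisation used 0.8% NP40 with benzonase for 60 min at 4 °C, followed by ultracentrifugation and TMT labelling of the supernatant for LC-MS/MS. After vsn normalisation of intensities, each value is the fold change against the detergent-processed vehicle within each replicate, across three independent experiments.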

Take UniProt P04234: the NP40-soluble protein abundance is 0.944 ± 0.068 (concentration: 0.1mM) and 0.895 ± 0.082 (concentration: 0.5mM).
In the same order, the values of TFRC (UniProt P02786) are 0.971 ± 0.032 and 0.993 ± 0.023.
As to HSPD1 (UniProt P10809), the NP40-soluble protein abundance is 0.971 ± 0.089 (concentration: 0.1mM) and 1.01 ± 0.062 (concentration: 0.5mM).
In the same order, the values of CYBA (UniProt P13498) are 0.997 ± 0.056 and 1.02 ± 0.12.
The corresponding values for PTTG1 (UniProt O95997) are 0.913 ± 0.05 and 0.83 ± 0.029.
The corresponding values for NCK1 (UniProt P16333) are 1.05 ± 0.043 and 1.01 ± 0.087.
PYGB (UniProt P11216): the NP40-soluble protein abundance (concentration: 0.1mM) came to 0.88 ± 0.07 and the NP40-soluble protein abundance (concentration: 0.5mM) is 0.798 ± 0.068.
On to DLAT (UniProt P10515), for which the NP40-soluble protein abundance (concentration: 0.1mM) was determined as 1.03 ± 0.17 and the NP40-soluble protein abundance (concentration: 0.5mM) stood at 1.19 ± 0.31.
GOT2 (UniProt P00505): the NP40-soluble protein abundance reads like this: (concentration: 0.1mM) 0.963 ± 0.14; (concentration: 0.5mM) 1 ± 0.064.
In the same order, the values of UniProt P01737 are 0.952 ± 0.051 and 0.925 ± 0.082.
Consider UniProt P05771-2|P05771, for which the NP40-soluble protein abundance was 1.03 ± 0.081 (concentration: 0.1mM) and 1.05 ± 0.067 (concentration: 0.5mM).
In the same order, the values of UniProt P12931 and related entries are 1.05 ± 0.095 and 1.01 ± 0.072.
As for UniProt P09525 and related entries, the NP40-soluble protein abundance came to 0.958 ± 0.021 (concentration: 0.1mM) and 0.95 ± 0.059 (concentration: 0.5mM).
With UniProt P00387 and related entries, the NP40-soluble protein abundance is 1.04 ± 0.07 (concentration: 0.1mM) and 0.997 ± 0.032 (concentration: 0.5mM).
In the same order, the values of LGALS1 (UniProt P09382) are 1.01 ± 0.0094 and 1.004 ± 0.0086.
In the case of HIST1H1B (UniProt P16401), the NP40-soluble protein abundance reads like this: (concentration: 0.1mM) 0.979 ± 0.096; (concentration: 0.5mM) 1.02 ± 0.1.
The corresponding values for UniProt P15812 and related entries are 0.894 ± 0.056 and 0.924 ± 0.2.
The corresponding values for RPLP2 (UniProt P05387) are 0.999 ± 0.17 and 0.952 ± 0.059.
The corresponding values for “P0C0S5 and related entries (UniProt Q71UI9+P0C0S5)” are 0.924 ± 0.14 and 0.977 ± 0.26.
Turning to HPRT1 (UniProt P00492), the NP40-soluble protein abundance (concentration: 0.1mM) amounted to 1.01 ± 0.067 and the NP40-soluble protein abundance (concentration: 0.5mM) came to 0.991 ± 0.041.
The corresponding values for SP1 (UniProt P08047) are 0.95 ± 0.068 and 0.956 ± 0.021.
In the same order, the values of ICAM2 (UniProt P13598) are 0.904 ± 0.027 and 0.912 ± 0.1.
For the target UniProt P10244 and related entries, the NP40-soluble protein abundance came to 0.946 ± 0.095 (concentration: 0.1mM) and 1.09 ± 0.043 (concentration: 0.5mM).
In the same order, the values of DBT (UniProt P11182) are 0.954 ± 0.095 and 1.04 ± 0.11.
In the same order, the values of UniProt P12814 and related entries are 1.03 ± 0.026 and 1.03 ± 0.066.
The corresponding values for UniProt P04424 and related entries are 0.995 ± 0.032 and 1.01 ± 0.046.
For the target UniProt P04150 and related entries, the NP40-soluble protein abundance by setting is: (concentration: 0.1mM) 0.979 ± 0.051; (concentration: 0.5mM) 0.88 ± 0.14.
In the same order, the values of APRT (UniProt P07741) are 0.881 ± 0.026 and 0.843 ± 0.13.
In the same order, the values of PEPD (UniProt P12955) are 1.06 ± 0.088 and 1.04 ± 0.076.
The corresponding values for UniProt P02545 and related entries are 1.02 ± 0.076 and 1.05 ± 0.087.
As to UniProt P05362 and related entries, the NP40-soluble protein abundance reads like this: (concentration: 0.1mM) 0.992 ± 0.064; (concentration: 0.5mM) 1.02 ± 0.097.
The corresponding values for UniProt P16383 are 0.972 ± 0.064 and 0.974 ± 0.082.
The corresponding values for UQCRH (UniProt P07919) are 1 ± 0.086 and 0.976 ± 0.11.
In the same order, the values of PCNA (UniProt P12004) are 1.02 ± 0.026 and 1.02 ± 0.058.
Turning to UniProt P06127, the NP40-soluble protein abundance reads like this: (concentration: 0.1mM) 0.998 ± 0.018; (concentration: 0.5mM) 0.982 ± 0.019.
As to CKB (UniProt P12277), the NP40-soluble protein abundance is, setting by setting: (concentration: 0.1mM) 0.922 ± 0.12; (concentration: 0.5mM) 0.921 ± 0.054.
In the same order, the values of UniProt P00390 and related entries are 1.05 ± 0.062 and 1.06 ± 0.064.
As to LTA4H (UniProt P09960), the NP40-soluble protein abundance (concentration: 0.1mM) came to 1.03 ± 0.091 and the NP40-soluble protein abundance (concentration: 0.5mM) was 1.03 ± 0.052.
The corresponding values for “UniProt P06753-2|P06753-3|P06753-5|P06753-6|J3KN67” are 0.825 ± 0.18 and 0.747 ± 0.26.
“UniProt P06454-2|B8ZZQ6 and related entries”: the NP40-soluble protein abundance is, setting by setting: (concentration: 0.1mM) 0.966 ± 0.061; (concentration: 0.5mM) 1 ± 0.067.
On to MTHFD1 (UniProt P11586), for which the NP40-soluble protein abundance amounted to 1.04 ± 0.053 (concentration: 0.1mM) and 1.05 ± 0.062 (concentration: 0.5mM).
In the same order, the values of TGFB1 (UniProt P01137) are 0.9956 ± 0.0088 and 0.956 ± 0.057.
